Test results reported in US20150368339A1.
Results are given in words; binding and its absence hold for the method and conditions named. Some entries that bind do so weakly or less than the wild type.

By UniProt entry, the sequences of proteins in these tests, tags left out. Where a name states a change or a piece, a line headed by the entry shows the natural chain unless it says otherwise.
UniProt P08172: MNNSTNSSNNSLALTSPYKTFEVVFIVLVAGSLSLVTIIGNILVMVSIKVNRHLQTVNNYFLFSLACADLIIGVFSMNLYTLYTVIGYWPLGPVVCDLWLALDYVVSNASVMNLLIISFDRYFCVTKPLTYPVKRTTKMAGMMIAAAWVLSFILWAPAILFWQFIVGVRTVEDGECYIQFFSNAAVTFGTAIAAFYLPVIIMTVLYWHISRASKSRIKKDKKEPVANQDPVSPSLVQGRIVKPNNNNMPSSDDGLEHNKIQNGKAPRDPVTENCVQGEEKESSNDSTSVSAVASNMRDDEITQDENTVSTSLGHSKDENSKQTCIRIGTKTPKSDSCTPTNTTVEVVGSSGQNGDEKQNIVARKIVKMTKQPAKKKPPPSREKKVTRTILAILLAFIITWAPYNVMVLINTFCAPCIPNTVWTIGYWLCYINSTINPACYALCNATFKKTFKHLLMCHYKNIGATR

Key:
[1] = target: human M2 muscarinic receptor (glycosylation sites removed, amino-terminal FLAG tag, carboxy-terminal 8xHis tag, residues 233-374 of intracellular loop 3 deleted) (human) (UniProt P08172); test: complex formation for the crystallization sample, purified by size exclusion
[2] = target: human M2 muscarinic receptor (glycosylation sites removed, amino-terminal FLAG tag, carboxy-terminal 8xHis tag, residues 233-374 of intracellular loop 3 deleted) (human) (UniProt P08172); test: radioligand (N-methylscopolamine) binding assay

binding [1]: binds
binding [2]: binds
B1: Nb_B4 (VHH)
VHH: QVQLQESGGGLVQAGGSLRLSCAASGRTFSNYAMSWFRQAPGKERGLVATIYRSGEGTYYLPSAKGRFTVSRDNAKNTAYLQMNSLKAEDTAVYYCAVMSRGTWSMWGQGTQVTVSS
